Source: patent publication US10407467B2 (priority 2013, dated 2019)

Test: general procedure: peptide synthesis; HATU/DIPEA
Details: late stage modification step, TFA salt

Substance: N-[2-(1-aminocyclohexyl)ethyl] Polymyxin B nonapeptide
- step yield: 62%
